Test results from patent US20240344040A1, “PROKARYOTIC AND EUKARYOTIC CELLS WITH BIOSYNTHESIZED SULFOTYROSINE FOR GENETIC INCORPORATION” (William Marsh Rice University, priority 2023, published 2024).

System: ΔcysH BW25113 cells
Assay: E. coli intracellular sulfotyrosine concentration measurement (LC-MS)
Assay type: cell-based, Escherichia coli

O=C(O)[C@H](Cc1ccc(O)cc1)NS(=O)(=O)O [sulfotyrosine]
cellular concentration of sulfotyrosine, fold higher than cells exogenously fed with 1 mM sulfotyrosine (biosynthetic pathway vs 1 mM exogenous feeding): 28 fold | cellular concentration of sulfotyrosine (cells endowed with the sulfotyrosine biosynthetic pathway, no exogenous feeding): 756.3 µM
